Laboratory results as given in PMC5623909.
These are yes or no findings as the source states them, for the method shown. Binding calls can cover weak binding; strength is not graded here. For some assays here: In cells and extracts the contact can be indirect. For some assays here: Sequences can lack the tags named with a protein. One block for each substance: values may come before it.

Tests used:
[1] = molecular target: T1, GSK2-NLuc (GSK2 fused with N-terminal of luciferase protein) (rice) (UniProt Q60EZ2); assay: split reporter; split-luciferase complementation in tobacco leaves; chemiluminescence imaged with a cold CCD
T1 sequence: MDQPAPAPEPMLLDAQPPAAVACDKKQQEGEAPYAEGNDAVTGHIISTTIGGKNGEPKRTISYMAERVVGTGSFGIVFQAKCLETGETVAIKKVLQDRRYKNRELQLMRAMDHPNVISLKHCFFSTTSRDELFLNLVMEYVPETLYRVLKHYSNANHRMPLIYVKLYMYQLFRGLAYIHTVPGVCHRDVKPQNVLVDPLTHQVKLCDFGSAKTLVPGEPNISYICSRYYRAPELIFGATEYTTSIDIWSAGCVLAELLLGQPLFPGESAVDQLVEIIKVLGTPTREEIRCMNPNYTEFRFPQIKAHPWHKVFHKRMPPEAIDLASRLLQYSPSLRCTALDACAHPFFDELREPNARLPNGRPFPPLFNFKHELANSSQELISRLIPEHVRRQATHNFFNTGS

[2] = molecular target: T2, GSK2 bait (GSK3-like kinase) (rice) (UniProt Q60EZ2); assay: two-hybrid; pairwise test of bait and prey in yeast (Clontech procedures); growth on -Leu/-Trp/-His/-Ade medium
T2 sequence: T1 sequence

[3] = molecular target: T3, DLT bait (GRAS family protein) (rice) (UniProt Q9LWU9); assay: as above
T3 sequence: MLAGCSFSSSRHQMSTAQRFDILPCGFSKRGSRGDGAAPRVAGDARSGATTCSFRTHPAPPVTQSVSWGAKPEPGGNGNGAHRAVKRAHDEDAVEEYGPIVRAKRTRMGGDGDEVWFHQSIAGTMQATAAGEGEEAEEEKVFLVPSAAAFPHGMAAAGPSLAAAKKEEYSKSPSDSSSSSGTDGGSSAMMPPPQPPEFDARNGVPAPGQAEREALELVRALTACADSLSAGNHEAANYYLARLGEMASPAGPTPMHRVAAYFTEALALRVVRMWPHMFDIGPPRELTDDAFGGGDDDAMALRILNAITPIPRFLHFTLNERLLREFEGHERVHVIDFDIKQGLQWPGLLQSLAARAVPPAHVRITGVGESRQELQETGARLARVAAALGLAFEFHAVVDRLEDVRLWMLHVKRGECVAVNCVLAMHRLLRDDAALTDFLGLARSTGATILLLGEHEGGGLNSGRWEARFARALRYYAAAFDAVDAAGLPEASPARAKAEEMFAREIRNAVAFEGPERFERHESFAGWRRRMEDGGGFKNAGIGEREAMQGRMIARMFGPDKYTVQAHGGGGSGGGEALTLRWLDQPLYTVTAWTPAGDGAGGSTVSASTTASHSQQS

[4] = molecular target: T4, VN-DLT (DLT fused with the N-terminal part of split Venus YFP) (rice) (UniProt Q9LWU9); assay: split reporter; BiFC with split Venus YFP (VC, VN) in transfected rice protoplasts; confocal microscopy
T4 sequence: T3 sequence

[5] = molecular target: T5, GSK2 fused with a half of split Venus YFP (BiFC) (rice) (UniProt Q60EZ2); assay: as above
T5 sequence: T1 sequence

binding [1]: binds
Substance: CLuc-OFP1 (OFP1 fused with C-terminal of luciferase protein) (rice)

binding [2]: binds
binding [3]: binds
Substance: Full length OFP1 prey (OFP1-AD) (rice)

binding [4]: binds
binding [5]: binds weakly
Substance: VC-OFP1 (OFP1 fused with a half of split Venus YFP) (rice)
